# No constants are given. Whether binding was seen depends on the method and setting. Binding seen in cells or lysates may run through a third protein. A result given as binding can be weak or reduced; the word gives no strength.
# Sequences of proteins named here, by UniProt entry; tags and fusion partners are left off. A change or cut given only in a name is not applied to a line headed by its entry.
# UniProt P00519: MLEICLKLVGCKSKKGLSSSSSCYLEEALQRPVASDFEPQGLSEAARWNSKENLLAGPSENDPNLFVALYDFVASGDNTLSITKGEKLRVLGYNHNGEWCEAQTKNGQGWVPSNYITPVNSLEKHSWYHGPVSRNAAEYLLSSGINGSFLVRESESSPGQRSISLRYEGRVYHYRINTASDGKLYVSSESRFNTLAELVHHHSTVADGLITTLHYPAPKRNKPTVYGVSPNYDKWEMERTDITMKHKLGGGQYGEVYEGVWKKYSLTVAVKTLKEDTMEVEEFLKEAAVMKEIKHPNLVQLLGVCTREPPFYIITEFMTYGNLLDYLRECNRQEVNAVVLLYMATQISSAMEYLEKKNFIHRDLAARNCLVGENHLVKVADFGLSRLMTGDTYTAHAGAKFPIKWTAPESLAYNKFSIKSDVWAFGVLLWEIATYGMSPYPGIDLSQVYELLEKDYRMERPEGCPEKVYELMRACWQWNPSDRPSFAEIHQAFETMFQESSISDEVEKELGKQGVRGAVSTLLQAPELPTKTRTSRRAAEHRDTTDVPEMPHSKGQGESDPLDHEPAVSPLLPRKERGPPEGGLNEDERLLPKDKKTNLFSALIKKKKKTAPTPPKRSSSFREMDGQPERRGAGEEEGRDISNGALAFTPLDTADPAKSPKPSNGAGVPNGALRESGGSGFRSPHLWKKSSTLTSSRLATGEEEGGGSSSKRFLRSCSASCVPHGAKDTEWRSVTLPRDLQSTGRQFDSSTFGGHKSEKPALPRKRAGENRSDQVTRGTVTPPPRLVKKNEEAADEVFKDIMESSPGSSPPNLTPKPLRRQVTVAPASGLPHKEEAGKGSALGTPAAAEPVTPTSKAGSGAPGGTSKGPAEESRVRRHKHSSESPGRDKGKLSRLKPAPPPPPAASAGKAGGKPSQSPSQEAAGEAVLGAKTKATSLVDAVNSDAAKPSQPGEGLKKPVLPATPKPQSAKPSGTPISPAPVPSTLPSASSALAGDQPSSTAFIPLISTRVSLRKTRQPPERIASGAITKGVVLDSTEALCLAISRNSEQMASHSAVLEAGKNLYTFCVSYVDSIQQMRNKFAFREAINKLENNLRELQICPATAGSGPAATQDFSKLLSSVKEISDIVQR
# B1: Mig6 Y394/5F (protein, UniProt Q9UJM3 1-462)
# chain: MSIAGVAAQEIRVPLKTGFLHNGRAMGNMRKTYWSSRSEFKNNFLNIDPITMAYSLNSSAQERLIPLGHASKSAPMNGHCFAENGPSQKSSLPPLLIPPSENLGPHEEDQVVCGFKKLTVNGVCASTPPLTPIKNSPSLFPCAPLCERGSRPLPPLPISEALSLDDTDCEVEFLTSSDTDFLLEDSTLSDFKYDVPGRRSFRGCGQINYAYFDTPAVSAADLSYVSDQNGGVPDPNPPPPQTHRRLRRSHSGPAGSFNKPAIRISNCCIHRASPNSDEDKPEVPPRVPIPPRPVKPDYRRWSAEVTSSTYSDEDRPPKVPPREPLSPSNSRTPSPKSLPSYLNGVMPPTQSFAPDPKYVSSKALQRQNSEGSASKVPCILPIIENGKKVSSTHFFLLPERPPYLDKYEKFFREAEETNGGAQIQPLPADCGISSATEKPDSKTKMDLGGHVKRKHLSYVVSP
# Legend:
# [1] = target: c-Abl, kinase-dead (KD) (UniProt P00519); assay: co-IP; Mig6 forms and c-Abl forms ectopically coexpressed (HEK293T where named); c-Abl or Mig6 immunopurified, immunoblotting
# [2] = target: inactive (kinase-dead) c-Abl kinase domain; assay: as above
Molecule,binding [1],binding [2]
"Mig6, wild type, ectopically expressed (from UniProt Q9UJM3 1-462)",binds,–
B1,–,binds

# Reference: PMC3657149, “Mig6 Is a Sensor of EGF Receptor Inactivation that Directly Activates c-Abl to Induce Apoptosis during Epithelial Homeostasis” (Developmental Cell, 2012)
